Data as given in PubChem BioAssay AID743121 (NCATS, 2013).

- Screen: 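Genes whose silencing strengthens cell killing by camptothecin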 (primary screen)
- Cell system: MDA-MB-231 cells, a human breast cancer line
- Knock-down reagent: single siRNA against human genes, 20 nM siRNA (0.8 pmol per well)
- Duration: 120 h (drug added 48 h after transfection, read 72 h later)
- Challenge: camptothecin 20 nM (about EC30) for 72 h; vehicle 0.1% DMSO in parallel plates
- Detection: 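Cell viability by ATP luminescence (CellTiter-Glo) as % of non-targeting siRNA wells, and the log2 ratio of viability without drug over viability with camptothecin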
- Reading the numbers: log2 vehicle/camptothecin viability: higher = stronger sensitisation to camptothecin
- Rule for the call: 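Each gene scored by redundant siRNA activity (RSA) over its individual siRNA ratios; a gene is called active at p < 0.001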
Shown is one part, drawn at random, of about 26,000 reagents. In the full data, 167 (0.63%) are marked active. 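Calls are per gene from RSA p-values that are not deposited; an individual active-marked siRNA can sensitise only weakly.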 Reagents against one gene are numbered here. Not all columns of the deposit are shown.

Gene,reagent,log2 vehicle/camptothecin viability,Call
NSD3 (nuclear receptor binding SET domain protein 3),1,-0.6,inactive
NSD3 (nuclear receptor binding SET domain protein 3),2,-0.316,inactive
NSD3 (nuclear receptor binding SET domain protein 3),3,-0.296,inactive
NSD3 (nuclear receptor binding SET domain protein 3),4,-0.0304,inactive
ALK (ALK receptor tyrosine kinase),1,-0.451,inactive
ALK (ALK receptor tyrosine kinase),2,-0.0341,inactive
ALK (ALK receptor tyrosine kinase),3,-0.737,inactive
ALK (ALK receptor tyrosine kinase),4,-0.459,inactive
EPHA4 (EPH receptor A4),1,-0.614,inactive
EPHA4 (EPH receptor A4),2,0.113,inactive
EPHA4 (EPH receptor A4),3,-0.109,inactive
EPHA4 (EPH receptor A4),4,-0.363,inactive
SATB1 (SATB homeobox 1),1,-0.133,inactive
SATB1 (SATB homeobox 1),2,-0.0072,inactive
SATB1 (SATB homeobox 1),3,0.157,inactive
SATB1 (SATB homeobox 1),4,0.0687,inactive
NACA (nascent polypeptide associated complex subunit alpha),1,-0.259,inactive
NACA (nascent polypeptide associated complex subunit alpha),2,0.303,inactive
NACA (nascent polypeptide associated complex subunit alpha),3,-0.0523,inactive
NACA (nascent polypeptide associated complex subunit alpha),4,-0.135,inactive
BTC (betacellulin),1,-0.0966,inactive
BTC (betacellulin),2,-0.28,inactive
BTC (betacellulin),3,1.35,inactive
BTC (betacellulin),4,-0.248,inactive
RSF1 (remodeling and spacing factor 1),1,-0.28,inactive
RSF1 (remodeling and spacing factor 1),2,-0.361,inactive
RSF1 (remodeling and spacing factor 1),3,-0.133,inactive
RSF1 (remodeling and spacing factor 1),4,0.484,inactive
